Results are given in words; binding and its absence hold for the method and conditions named. In cells and extracts the contact can be indirect. Some results given as binding are weak or reduced against the parent protein; the word gives no strength. For some assays here: Tags and fused reporters may be left off the sequences shown.
What was measured:
GST-CDH1 = GST-CDH1 (UniProt Q9UM11); assay: pull-down; purified GST fusion (100 ng of GST-USP37) mixed with 10 μl of in vitro translated protein on ice for 1 h, diluted with TBST, glutathione beads 1 h at 4 °C, four washes with TBST, immunoblot; only the target purified
[1] = target: T1, recombinant glutathione-S-transferase (GST)-USP37 (UniProt Q86T82); assay: condition: 100 ng of GST-USP37 with 10 μl of in vitro translated protein; pull-down; purified GST fusion (100 ng of GST-USP37) mixed with 10 μl of in vitro translated protein on ice for 1 h, diluted with TBST, glutathione beads 1 h at 4 °C, four washes with TBST, immunoblot; only the target …
T1 sequence: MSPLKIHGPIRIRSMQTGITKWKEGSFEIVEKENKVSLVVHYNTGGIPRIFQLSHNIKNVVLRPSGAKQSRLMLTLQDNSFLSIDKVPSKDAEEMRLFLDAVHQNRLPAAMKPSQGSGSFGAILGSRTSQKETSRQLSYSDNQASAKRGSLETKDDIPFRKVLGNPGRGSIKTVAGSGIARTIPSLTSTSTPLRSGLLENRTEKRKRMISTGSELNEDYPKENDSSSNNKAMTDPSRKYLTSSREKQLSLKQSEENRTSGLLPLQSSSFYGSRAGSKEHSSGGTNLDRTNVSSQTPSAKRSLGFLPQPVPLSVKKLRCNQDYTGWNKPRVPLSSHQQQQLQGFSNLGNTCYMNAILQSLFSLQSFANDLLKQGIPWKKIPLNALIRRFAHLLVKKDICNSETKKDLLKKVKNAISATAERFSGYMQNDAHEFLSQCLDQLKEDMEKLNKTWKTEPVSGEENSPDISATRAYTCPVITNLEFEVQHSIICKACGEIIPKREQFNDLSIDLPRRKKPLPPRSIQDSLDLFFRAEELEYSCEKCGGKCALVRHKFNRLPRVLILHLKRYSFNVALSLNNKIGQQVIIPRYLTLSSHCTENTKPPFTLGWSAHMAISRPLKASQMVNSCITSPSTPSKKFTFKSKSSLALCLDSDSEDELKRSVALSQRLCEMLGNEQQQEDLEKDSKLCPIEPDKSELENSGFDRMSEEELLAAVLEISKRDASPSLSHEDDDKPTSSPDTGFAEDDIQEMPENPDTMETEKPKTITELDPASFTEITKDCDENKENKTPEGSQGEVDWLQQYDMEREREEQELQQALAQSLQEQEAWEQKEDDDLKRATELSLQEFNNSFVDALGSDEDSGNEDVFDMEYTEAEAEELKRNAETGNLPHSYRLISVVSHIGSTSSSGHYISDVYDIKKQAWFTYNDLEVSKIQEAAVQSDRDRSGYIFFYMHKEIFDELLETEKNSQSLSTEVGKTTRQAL

Chains of the proteins cited; added tags and fusions are not shown.
UniProt Q9UM11: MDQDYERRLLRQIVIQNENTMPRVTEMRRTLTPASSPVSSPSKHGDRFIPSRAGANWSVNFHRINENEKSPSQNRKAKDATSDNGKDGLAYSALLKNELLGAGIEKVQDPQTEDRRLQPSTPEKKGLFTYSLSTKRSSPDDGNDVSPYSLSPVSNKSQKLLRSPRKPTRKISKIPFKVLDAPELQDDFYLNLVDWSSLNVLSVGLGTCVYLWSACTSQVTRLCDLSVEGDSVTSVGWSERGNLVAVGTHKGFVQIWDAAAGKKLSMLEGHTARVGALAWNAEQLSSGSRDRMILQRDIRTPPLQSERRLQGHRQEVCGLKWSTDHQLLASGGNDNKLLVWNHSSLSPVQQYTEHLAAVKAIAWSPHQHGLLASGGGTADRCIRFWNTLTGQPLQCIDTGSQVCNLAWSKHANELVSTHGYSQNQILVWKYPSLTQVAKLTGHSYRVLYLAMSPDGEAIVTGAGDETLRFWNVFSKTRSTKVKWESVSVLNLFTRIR
UniProt Q96GD4: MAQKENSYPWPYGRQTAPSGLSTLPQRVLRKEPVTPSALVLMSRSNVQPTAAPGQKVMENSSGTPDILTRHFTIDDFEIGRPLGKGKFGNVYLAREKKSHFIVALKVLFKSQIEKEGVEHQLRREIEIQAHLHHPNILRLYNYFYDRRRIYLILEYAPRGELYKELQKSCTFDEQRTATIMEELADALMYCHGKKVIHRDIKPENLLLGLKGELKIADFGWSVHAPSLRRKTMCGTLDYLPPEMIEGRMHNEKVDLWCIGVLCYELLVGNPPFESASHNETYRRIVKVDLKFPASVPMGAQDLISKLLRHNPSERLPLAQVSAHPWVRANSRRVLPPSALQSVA

binding (GST-CDH1): binds
binding [1]: no binding
Substance: in vitro translated MYC-AURKB (from UniProt Q96GD4 1-344) (enzyme)
